Patent US4233403A, “Amylase assay” (E. I. Du Pont de Nemours and Company, priority 1978, dated 1980)

Test system: α-amylase
Assay: amylase assay with nitrophenyl oligosaccharide substrate plus α-glucosidase, rate at 410 nm, standard curve
Format: biochemical
Settings: two-variable optimization of substrate and α-glucosidase, pH 6.5, 37° C.
Description: A sample of α-(4-nitrophenyl) maltotetraoside (G4 pNp) prepared in accordance with Example 1H of U.S. Patent Application Ser. No. 704,975, filed on the same day as this application, was dissolved in 66.7 mM sodium phosphate buffer, pH 6.5, to provide various substrate concentrations ranging from 2 to 8 mg/3 ml. As described in U.S. Ser. No. 704,975, this substrate sample has been purified using a Sephadex® LH-20 Chromatographic Column. α-Glucosidase of various concentrations ranging from 2.5 to 12.5 International Units per three milliliters of solution (IU/3 ml) was then added to the substrate solution and the volume of the solution was brought up to 3.0 ml. […]
After the blank rate was measured at 410 nm, using a Gilford spectrophotometer, the reaction was initiated by adding 0.1 ml of an Elevated Enzyme Control Product sold by the E. I. du Pont de Nemours and Company (1150 Somogyi Units per deciliter (SU/dl) amylase) diluted 1:1 with Du Pont Enzyme Diluent. […] The total reaction rate was then measured using the Gilford spectrophotometer, and by subtracting the blank rate from the total rate, the net reaction rate was obtained.
Using these optimum values of G4 pNp and α-glucosidase in a reaction solution of 3 ml, the reaction rates for various amylase sample concentrations were measured and a standard curve was generated. From this curve, the sensitivity in mA/min/SU/dl was measured. […]

| Compound | optimum concentration of substrate |
| --- | --- |
| O=[N+]([O-])c1ccc(O[C@H]2O[C@H](CO)[C@@H](O[C@H]3O[C@H](CO)[C@@H](O[C@H]4O[C@H](CO)[C@@H](O[C@H]5O[C@H](CO)[C@@H](O)[C@H](O)[C@H]5O)[C@H](O)[C@H]4O)[C@H](O)[C@H]3O)[C@H](O)[C@H]2O)cc1 [G4 pNp, α-(4-nitrophenyl) maltotetraoside] | approximately 4.0 mg/3 ml |
| O=[N+]([O-])c1ccc(O[C@H]2O[C@H](CO)[C@@H](O[C@H]3O[C@H](CO)[C@@H](O[C@H]4O[C@H](CO)[C@@H](O[C@H]5O[C@H](CO)[C@@H](O[C@H]6O[C@H](CO)[C@@H](O)[C@H](O)[C@H]6O)[C@H](O)[C@H]5O)[C@H](O)[C@H]4O)[C@H](O)[C@H]3O)[C@H](O)[C@H]2O)cc1 [G5 pNp, α-(4-nitrophenyl) maltopentaoside] | > 12.0 mg/3 ml |
